# Test results from PubChem BioAssay AID330 (DTP/NCI, 2004).
# The list does not hold the whole screen: it gathers tests that were run many times, whatever their T/C, doses with no T/C, and many T/C values between a quarter and a half above the control. Other doses and runs of a compound stand elsewhere. T/C gives the treated animals as a percentage of the vehicle group. Some entries give survivors of the animals treated and no T/C: the source holds a T/C of zero for them, seemingly a mark for toxic or unscored doses. Some survivor counts are full or nearly so, which does not show that the dose was tolerated: survival well below the control is almost never listed, so the zero probably covers shortened survival too. Survivors were counted at the toxicity check, usually on the fifth day, unless a day is given; later deaths do not show. Schedules are NCI's codes, read here as Q, the interval in days (D) or hours (H), X, the number of doses. Some structures stand for samples that the source files as different forms (salt, stereo form or complex); doses refer to the form tested. Brackets with × count equal records among those shown. Some entries hold several experiments; the results are listed from low to high. Where survival is the endpoint, the PubChem record calls one and a half times the control and up active, and a quarter to a half above the control has no call in these data; cut-offs in other NCI protocols can differ. Some T/C values are followed by the survivors on the day toxicity was checked, most often the fifth; where none is given, no animal had died by that day.
# Tested on: P388 leukemia ip, CD2F1 mice, survival T/C
# Assay: NCI In Vivo Anticancer Drug Screen. Data for tumor model P388 Leukemia (intraperitoneal) in CD2F1 (CDF1) mice
# Settings: T/C endpoint: median survival time, higher T/C = longer survival
# [1] = dose: 100.0 mg/kg/injection, schedule: Q01DX005 (ip), vehicle: saline with Tween-80
# [2] = dose: 200.0 mg/kg/injection, schedule: Q01DX005 (ip), vehicle: saline with Tween-80
# [3] = dose: 6.25 mg/kg/injection, schedule: Q01DX005 (ip), vehicle: saline with Tween-80
# [4] = dose: 12.5 mg/kg/injection, schedule: Q01DX005 (ip), vehicle: saline with Tween-80
# [5] = dose: 50.0 mg/kg/injection, schedule: Q01DX005 (ip), vehicle: saline with Tween-80
# [6] = dose: 25.0 mg/kg/injection, schedule: Q04DX003 (ip), vehicle: saline
# [7] = dose: 100.0 mg/kg/injection, schedule: Q04DX003 (ip), vehicle: saline
# [8] = dose: 240.0 mg/kg/injection, schedule: Q01DX005 (ip), vehicle: saline with Tween-80
# [9] = dose: 100.0 mg/kg/injection, schedule: Q01DX009 (ip), vehicle: saline with Tween-80
# [10] = dose: 200.0 mg/kg/injection, schedule: Q01DX009 (ip), vehicle: Klucel (hydroxypropylcellulose) (HPC)
# [11] = dose: 25.0 mg/kg/injection, schedule: Q01DX009 (ip), vehicle: saline with Tween-80
# [12] = dose: 50.0 mg/kg/injection, schedule: Q01DX009 (ip), vehicle: saline with Tween-80
structure (smiles),measurement,setting,value
COC(=O)c1cc(CC[N+](C)(C)Cc2ccccc2)c2ccccn12,survivor count,"dose: 100.0 mg/kg/injection, schedule: Q04DX002 (ip), vehicle: saline",0 of 6
same,survivor count,"dose: 200.0 mg/kg/injection, schedule: Q04DX002 (ip), vehicle: saline",0 of 6
same,survivor count,"dose: 400.0 mg/kg/injection, schedule: Q04DX002 (ip), vehicle: saline",0 of 6
C=C1CCC(=O)NC1=O,survivor count,[1],0 of 6
same,survivor count,[2],0 of 6
CN(C)N1C(=O)C(C(=O)Nc2cccc3ccccc23)SC1=S (stereo not given),survivor count,[3],5 of 5
same,survivor count,[4],5 of 5
same,survivor count,"dose: 25.0 mg/kg/injection, schedule: Q01DX005 (ip), vehicle: saline with Tween-80",5 of 5
same,survivor count,[5],5 of 5
C=C1C(=O)OC2C1C(OC(=O)/C(C)=C\C)CC(C)=C1C(=O)C3OC3(C)C12O (stereo not given),survivor count,"dose: 100.0 mg/kg/injection, schedule: Q01DX005 (ip), vehicle: saline + alcohol",0 of 6
C/C(=N\NC(=S)N1CCCC1)c1ncccn1,survivor count,"dose: 100.0 mg/kg/injection, schedule: Q04DX003 (ip), vehicle: Klucel (hydroxypropylcellulose) (HPC)",0 of 6
same,survivor count,"dose: 200.0 mg/kg/injection, schedule: Q04DX003 (ip), vehicle: Klucel (hydroxypropylcellulose) (HPC)",0 of 6
same,survivor count,"dose: 400.0 mg/kg/injection, schedule: Q04DX003 (ip), vehicle: Klucel (hydroxypropylcellulose) (HPC)",0 of 6
N#Cc1c(NN)n(C2OC(CO)C(O)C2O)c2ncnc(N)c12 (stereo not given),T/C,[6],131 % of control
same,T/C,"dose: 50.0 mg/kg/injection, schedule: Q04DX003 (ip), vehicle: saline",140 % of control [5 of 6 alive]
same,T/C,[7],127 % of control [4 of 6 alive]
C[N+]12OC3CCC(O)CC1CCCC2C3 (stereo not given),survivor count,"dose: 200.0 mg/kg/injection, schedule: Q01DX001 (ip), vehicle: water",1 of 6
same,survivor count,"dose: 400.0 mg/kg/injection, schedule: Q01DX001 (ip), vehicle: water",0 of 6
CNC(=O)CC(N)C(=O)O (stereo not given),T/C,"dose: 400.0 mg/kg/injection, schedule: Q01DX009 (ip), vehicle: saline",125 % of control
C[CH2][Sn]([Cl])([Cl])[CH2]C,T/C,"dose: 12.5 mg/kg/injection, schedule: Q04DX003 (ip), vehicle: saline",136 % of control
same,survivor count,[6],0 of 6 and 1 of 6
same,survivor count,[7],0 of 6 (2×)
same,survivor count,"dose: 200.0 mg/kg/injection, schedule: Q04DX003 (ip), vehicle: saline",0 of 6 (2×)
same,survivor count,"dose: 400.0 mg/kg/injection, schedule: Q04DX003 (ip), vehicle: saline",0 of 6 (2×)
O=C1CS(=O)(=O)C(c2ccccc2F)N1N1C(=O)CS(=O)(=O)C1c1ccccc1F (stereo not given),survivor count,"dose: 30.0 mg/kg/injection, schedule: Q01DX005 (ip), vehicle: saline with Tween-80",6 of 6
same,survivor count,"dose: 60.0 mg/kg/injection, schedule: Q01DX005 (ip), vehicle: saline with Tween-80",6 of 6
same,survivor count,"dose: 120.0 mg/kg/injection, schedule: Q01DX005 (ip), vehicle: saline with Tween-80",6 of 6
same,survivor count,[8],6 of 6
CN(C)CCCNc1nc(-c2cccc(C(Cl)(Cl)Cl)c2)nc(C(Cl)(Cl)Cl)n1,survivor count,[9],4 of 6
same,survivor count,"dose: 200.0 mg/kg/injection, schedule: Q01DX009 (ip), vehicle: saline with Tween-80",0 of 6
COc1cc2c(cc1OC)-c1c(O)c(OC)cc3c1C(C2)N(C)CC3 (stereo not given),T/C,"dose: 4.5 mg/kg/injection, schedule: Q01DX009 (ip), vehicle: Klucel (hydroxypropylcellulose) (HPC)",127 % of control
O=C1OC(OC/C(Br)=C(/Br)COC2OC(=O)C(Cl)=C2Cl)C(Cl)=C1Cl (stereo not given),survivor count,[8],0 of 6
Cc1ccc2nc(C[n+]3cccc4ccccc43)ccc2c1,T/C,"dose: 1.5 mg/kg/injection, schedule: Q01DX005 (ip), vehicle: saline",125 % of control
same,survivor count,[3],2 of 5
same,survivor count,[4],0 of 5
same,survivor count,[5],0 of 5
same,survivor count,[1],0 of 5
same,survivor count,[2],0 of 5
CCC1=CC2CC(c3cc4c(cc3OC)N(C)C3C(O)(C(=O)NC)C(OC(C)=O)C5(CC)C=CCN6CCC43C65)c3[nH]c4ccccc4c3CCN(C1)C2 (stereo not given),T/C,"dose: 1.0 mg/kg/injection, schedule: Q01DX001 (ip), vehicle: water",127 % of control
same,survivor count,"dose: 50.0 mg/kg/injection, schedule: Q01DX001 (ip), vehicle: other",3 of 3
CC(C)CSc1nc2ccc(NC(=O)/C=C/C(=O)O)cc2s1,survivor count,[10],2 of 6
CC(=O)OC1CC(O)CC2=CCC3C4CCC(C(C)(O)C(O)CC5COC(=O)C5C)C4(C)CCC3C21C (stereo not given),survivor count,"dose: 128.0 mg/kg/injection, schedule: Q01DX005 (ip), vehicle: distilled water + Tween-80",5 of 5
CNC(=S)NNc1ccc(Cl)c(Cl)c1,survivor count,"dose: 100.0 mg/kg/injection, schedule: Q01DX009 (ip), vehicle: other",4 of 6
same,survivor count,"dose: 200.0 mg/kg/injection, schedule: Q01DX009 (ip), vehicle: other",0 of 6
same,survivor count,"dose: 400.0 mg/kg/injection, schedule: Q01DX009 (ip), vehicle: other",0 of 6
CSCNC(=S)Nc1ccc(Cl)cc1,survivor count,"dose: 100.0 mg/kg/injection, schedule: Q01DX009 (ip), vehicle: Klucel (hydroxypropylcellulose) (HPC)",3 of 6
same,survivor count,[10],0 of 6
CCCn1c2ccccc2c2c(C)c3cnccc3c(C)c21,T/C,"dose: 200.0 mg/kg/injection, schedule: Q04DX002 (ip), vehicle: saline with Tween-80",128 % of control
O=NN(CCBr)C(=O)Nc1ccccc1,T/C,"dose: 3.0 mg/kg/injection, schedule: Q01DX009 (ip), vehicle: saline with Tween-80",145 % of control
same,T/C,"dose: 12.5 mg/kg/injection, schedule: Q01DX009 (ip), vehicle: saline with Tween-80",145 % of control
same,T/C,"dose: 16.5 mg/kg/injection, schedule: Q01DX009 (ip), vehicle: saline with Tween-80",133 % of control
same,T/C,[11],141 % of control
same,survivor count,[11],6 of 6
same,T/C,[12],140 % of control
same,survivor count,[12],6 of 6
same,survivor count,[9],5 of 6
same,T/C,"dose: 100.0 mg/kg/injection, schedule: Q04DX003 (ip), vehicle: saline with Tween-80",131 % of control [5 of 6 alive]
same,survivor count,"dose: 200.0 mg/kg/injection, schedule: Q04DX003 (ip), vehicle: saline with Tween-80",6 of 6
same,survivor count,"dose: 400.0 mg/kg/injection, schedule: Q04DX003 (ip), vehicle: saline with Tween-80",3 of 6
FC(F)(F)SN1CN(SC(F)(F)F)CN(SC(F)(F)F)CN(SC(F)(F)F)CN(SC(F)(F)F)C1,survivor count,"dose: 240.0 mg/kg/injection, schedule: Q01DX005 (ip), vehicle: saline",5 of 6
